Measurements reported in article PMC7545097, “Mapping the native interaction surfaces of PREP1 with PBX1 by cross-linking mass-spectrometry and mutagenesis” (Scientific Reports, 2020).
These are yes or no findings as the source states them, for the method shown. Binding seen in cells or lysates may run through a third protein. Binding can be weak; no strength is given.

Protein sequences, listed by entry. Tags and fused reporters are not part of them. Lines headed by an entry give the natural chain unless they say otherwise; changes in a name come on top.
UniProt P55347: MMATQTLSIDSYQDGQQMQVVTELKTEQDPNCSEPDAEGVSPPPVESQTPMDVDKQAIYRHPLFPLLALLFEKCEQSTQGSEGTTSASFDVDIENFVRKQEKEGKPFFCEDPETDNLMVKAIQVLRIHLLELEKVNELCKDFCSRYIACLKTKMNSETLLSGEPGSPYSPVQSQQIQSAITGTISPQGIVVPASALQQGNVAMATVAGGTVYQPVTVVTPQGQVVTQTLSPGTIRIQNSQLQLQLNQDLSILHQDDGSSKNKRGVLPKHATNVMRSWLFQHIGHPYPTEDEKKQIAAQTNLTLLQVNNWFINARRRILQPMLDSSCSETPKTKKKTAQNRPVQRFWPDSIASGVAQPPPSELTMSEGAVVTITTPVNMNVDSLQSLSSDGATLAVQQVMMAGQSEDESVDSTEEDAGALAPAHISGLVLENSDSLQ

Molecular target: T1, PBX1, endogenous in A549 cells (human (endogenous in A549)) (UniProt P40424)
T1 sequence: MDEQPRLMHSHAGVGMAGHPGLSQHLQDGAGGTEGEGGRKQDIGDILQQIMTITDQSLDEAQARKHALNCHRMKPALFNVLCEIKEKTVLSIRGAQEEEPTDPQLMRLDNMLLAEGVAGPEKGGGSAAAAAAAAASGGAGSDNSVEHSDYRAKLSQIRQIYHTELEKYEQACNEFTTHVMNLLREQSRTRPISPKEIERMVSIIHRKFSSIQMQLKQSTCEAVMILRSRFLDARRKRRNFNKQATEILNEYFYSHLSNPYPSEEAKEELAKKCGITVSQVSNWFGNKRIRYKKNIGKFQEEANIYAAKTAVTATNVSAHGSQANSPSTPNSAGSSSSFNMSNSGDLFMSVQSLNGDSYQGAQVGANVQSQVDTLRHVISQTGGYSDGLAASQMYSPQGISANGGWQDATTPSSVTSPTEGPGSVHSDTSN
Test: proximity ligation; in situ PLA (Duolink) in fixed A549 cells expressing PREP1-GFP constructs; anti-PBX1 and anti-GFP antibodies; nuclear and cytoplasmic foci counted

binding: binds
Substance: PREP1-GFP ΔHD (from UniProt P55347)
